Record: PubChem BioAssay AID686938 (Drosophila RNAi Screening Center, 2013)
The screen tested about 23,000 reagents; shown is a random part of those with a known target gene and a result. Over the whole deposit, 75 (0.33%) got an active call. 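Raw plate signals without normalisation; calls rest on plate z-scores that were not deposited; ratio present for only 364 wells.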 A number with no mark means an inactive call. Not stated in the record: the dose of the treatment.

- Assay: 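Knock-downs reducing store-operated calcium influx in Drosophila cells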 (primary screen)
- Cell system: Drosophila S2R+ cells
- Reagents: long dsRNA against Drosophila genes, about 0.25 µg dsRNA per well, roughly 10,000 cells
- Timing: 5 days of knock-down before the calcium assay
- Conditions: thapsigargin (SERCA pump blocker) to empty calcium stores; entry signal taken 4 min after adding it
- Read-out: 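Duplicate raw fluo-4 intensities per well from a plate reader, at rest and four minutes after thapsigargin emptied calcium stores; entry-to-rest ratio filled for only some wells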
- Reading the numbers: calcium entry signal: higher = stronger calcium signal after store depletion; entry to resting ratio: higher = more calcium entry relative to resting level; resting calcium signal: higher = higher resting calcium signal
- Active means: 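Hit if the duplicate-averaged plate z-score for entry over resting signal is under −3; wells with weak total dye signal (Fmax z < −2) or more than 5 off-targets removed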
- Calls: active = strongly reduced calcium entry; inactive = no strong reduction

Against Gr43a (Gustatory receptor 43a) [DRSC06658], the entry reads calcium entry signal, replicate 1 (fluorescence units) = 3.34e7; calcium entry signal, replicate 2 (fluorescence units) = 2.94e7; resting calcium signal, replicate 1 (fluorescence units) = 1.65e7; resting calcium signal, replicate 2 (fluorescence units) = 1.48e7.
After knock-down of CG8837 [DRSC00711] the results were calcium entry signal, replicate 1 (fluorescence units) = 2.96e7; calcium entry signal, replicate 2 (fluorescence units) = 2.88e7; resting calcium signal, replicate 1 (fluorescence units) = 1.41e7; resting calcium signal, replicate 2 (fluorescence units) = 1.43e7.
Knock-down of laf (labial associated factor) [DRSC12246] resulted in: calcium entry signal, replicate 1 (fluorescence units) = 3.34e7; calcium entry signal, replicate 2 (fluorescence units) = 5.33e7; resting calcium signal, replicate 1 (fluorescence units) = 1.62e7; resting calcium signal, replicate 2 (fluorescence units) = 2.36e7.
Against ndl (nudel) [DRSC11374] the deposit lists calcium entry signal, replicate 1 (fluorescence units) = 2.81e7; calcium entry signal, replicate 2 (fluorescence units) = 4.32e7; resting calcium signal, replicate 1 (fluorescence units) = 1.42e7; resting calcium signal, replicate 2 (fluorescence units) = 1.98e7.

An excerpt from above, showing only “resting calcium signal, replicate 1 (fluorescence units)”.
CG8837 [DRSC00711] = 1.41e7
laf (labial associated factor) [DRSC12246] = 1.62e7

The list goes on.
Cand1 (Cullin-associated and neddylation-dissociated 1) [DRSC01992] showed calcium entry signal, replicate 1 (fluorescence units) = 4.71e7; resting calcium signal, replicate 1 (fluorescence units) = 2.50e7.
Vap33 (VAMP-associated protein 33kDa) [DRSC18384] gave calcium entry signal, replicate 1 (fluorescence units) = 3.53e7; calcium entry signal, replicate 2 (fluorescence units) = 5.03e7; resting calcium signal, replicate 1 (fluorescence units) = 1.69e7; resting calcium signal, replicate 2 (fluorescence units) = 2.48e7.
Silencing of hfw (halfway) [DRSC18506] came out at: calcium entry signal, replicate 1 (fluorescence units) = 3.85e7; calcium entry signal, replicate 2 (fluorescence units) = 4.49e7; entry to resting ratio 2.1; resting calcium signal, replicate 1 (fluorescence units) = 1.82e7; resting calcium signal, replicate 2 (fluorescence units) = 1.80e7.
For Dcp-1 (Death caspase-1) [DRSC04609], the values are calcium entry signal, replicate 1 (fluorescence units) = 4.44e7; resting calcium signal, replicate 1 (fluorescence units) = 2.04e7.
After knock-down of CG33679 [DRSC01436], the screen gave calcium entry signal, replicate 1 (fluorescence units) = 4.81e7; calcium entry signal, replicate 2 (fluorescence units) = 3.17e7; resting calcium signal, replicate 1 (fluorescence units) = 2.34e7; resting calcium signal, replicate 2 (fluorescence units) = 1.47e7.
After knock-down of Ankle2 [DRSC20105], the record shows calcium entry signal, replicate 1 (fluorescence units) = 2.64e7; calcium entry signal, replicate 2 (fluorescence units) = 2.90e7; resting calcium signal, replicate 1 (fluorescence units) = 1.24e7; resting calcium signal, replicate 2 (fluorescence units) = 1.34e7.
Depletion of Ankle2 [DRSC20106] came out at: calcium entry signal, replicate 1 (fluorescence units) = 2.26e7; calcium entry signal, replicate 2 (fluorescence units) = 2.60e7; resting calcium signal, replicate 1 (fluorescence units) = 1.25e7; resting calcium signal, replicate 2 (fluorescence units) = 1.23e7.
Fancd2 [DRSC15208] gave calcium entry signal, replicate 1 (fluorescence units) = 4.05e7; calcium entry signal, replicate 2 (fluorescence units) = 5.60e7; resting calcium signal, replicate 1 (fluorescence units) = 5.94e7; resting calcium signal, replicate 2 (fluorescence units) = 2.53e7.
After knock-down of Fancd2 [DRSC22763], the screen gave calcium entry signal, replicate 1 (fluorescence units) = 4.65e7; calcium entry signal, replicate 2 (fluorescence units) = 4.29e7; resting calcium signal, replicate 1 (fluorescence units) = 2.51e7; resting calcium signal, replicate 2 (fluorescence units) = 1.97e7.
